Source: patent publication US3966744A, “Spin labeled compounds” (priority 1974, dated 1976)

System: antibody (cocaine assay)
Assay: Second cocaine spin immunoassay (spin label of Example 7.2)
Conditions: eleven urine samples of donors who had snuffed cocaine within 12 to 24 hours

Which “samples remaining positive by the cocaine assay after freezing and thawing” value does the source give for `COC(=O)[C@H]1[C@@H](OC(=O)c2ccccc2)C[C@@H]2CC[C@H]1N2C` [cocaine] here?
Its value is “Only one remained positive by the cocaine assay”.
